# Reference: patent US20090082268A1 (GEYMONAT S P A, published 2009)
# Amino acid sequences for entries named in this document (tags omitted). Residues count along the entry.
# UniProt P17948, residues 27-756: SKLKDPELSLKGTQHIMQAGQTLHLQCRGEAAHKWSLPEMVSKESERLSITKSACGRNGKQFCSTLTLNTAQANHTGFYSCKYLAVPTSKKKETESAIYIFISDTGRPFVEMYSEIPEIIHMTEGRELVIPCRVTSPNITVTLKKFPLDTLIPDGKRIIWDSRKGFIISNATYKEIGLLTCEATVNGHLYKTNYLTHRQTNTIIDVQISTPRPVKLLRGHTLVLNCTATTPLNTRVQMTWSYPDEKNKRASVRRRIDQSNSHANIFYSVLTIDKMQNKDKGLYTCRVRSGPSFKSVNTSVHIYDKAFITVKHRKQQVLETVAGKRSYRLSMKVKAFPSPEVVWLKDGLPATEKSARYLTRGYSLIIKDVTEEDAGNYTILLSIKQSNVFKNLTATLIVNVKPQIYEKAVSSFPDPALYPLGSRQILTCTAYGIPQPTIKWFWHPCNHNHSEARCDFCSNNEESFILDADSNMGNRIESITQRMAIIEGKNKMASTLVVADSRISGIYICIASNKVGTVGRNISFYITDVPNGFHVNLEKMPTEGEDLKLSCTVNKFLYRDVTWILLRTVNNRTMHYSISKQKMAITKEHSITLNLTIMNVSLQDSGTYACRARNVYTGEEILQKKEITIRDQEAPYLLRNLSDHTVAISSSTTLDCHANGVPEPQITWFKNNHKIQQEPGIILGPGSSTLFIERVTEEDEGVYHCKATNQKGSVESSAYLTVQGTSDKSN
# Results are given in words; binding and its absence hold for the method and conditions named. Some entries that bind do so weakly or less than the wild type.
# Target: T1, human VEGFR-1/Fc (R&D Systems) (human, UniProt P17948 27-756, limits assumed)
# T1 construct: Bought reagent, coated on the ELISA plate; also called receptor Flt-1; not shown: Fc part of the bought fusion
# Experiment: ELISA: VEGFR-1/Fc coated, PlGF-1 diluted two-fold from 20 ng/ml, detected with biotinylated anti-human PlGF antibodies
# Protocol: To test receptor binding, an ELISA assay was performed according to the following protocol: [0141] 1. Well of 96-well microtiter plate were coated with 200 μl of 1 μg/ml human VEGFR-1/Fc (R&D Systems) and incubated overnight at 4° C. [0142] 2. Two-fold dilution series starting at 20 ng/ml of various preparations of recombinant human PlGF-1 were prepared and added in a volume of 100 μl per well. The plate was incubated for 2 hours at room temperature. [0143] 3. Bound PlGF-1 was captured with biotinylated anti-human PlGF antibodies (R&D Systems) added in a volume of 100 μl per well for 1 hour at room temperature. [0144] 4. A 1:200 dilution of horseradish peroxidase-conjugated streptavidin (R&D Systems) was added and incubated for 20 min. at room temperature. [0145] 5. Substrate solution (TMB from Pierce) was added and after 15 min. the reaction was quenched with 2 M sulfuric acid. [0146] 6. The absorbance was measured at 450 nm.
row,binding,Binder
1,binds,"wild-type recombinant human PlGF-1, preparation R-HPG-P08 (Eurogentec) (ligand) MLPAVPPQQWALSAGNGSSEVEVVPFQEVWGRSYCRALERLVDVVSEYPSEVEHMFSPSCVSLLRCTGCCGDENLHCVPVETANVTMQLLKIRSGDRPSYVELTFSQHVRCECRPLREKMKPERCGDAVPRR"
2,binds,"wild-type recombinant human PlGF-1, preparation R-HPG-P16 (Eurogentec) (ligand) MLPAVPPQQWALSAGNGSSEVEVVPFQEVWGRSYCRALERLVDVVSEYPSEVEHMFSPSCVSLLRCTGCCGDENLHCVPVETANVTMQLLKIRSGDRPSYVELTFSQHVRCECRPLREKMKPERCGDAVPRR"
3,binds,"PlGF-1 mutein from Geymonat (recombinant human PLGF-1CG) (ligand, Described as 'a PlGF-1 mutein embodiment of the present invention'; also called Geymonat Mutein; Mutein Geymonat) MLPAVPPQQWALSAGNGSSEVEVVPFQEVWGRSYCRALERLVDVVSEYPSEVEHMFSPSCVSLLRCTGCCGDENLHCVPVETANVTMQLLKIRSGDRPSYVELTFSQHVRCECRPLREKMKPERGGDAVPRR"
